Data: paper PMC12255046
These are yes or no findings as the source states them, for the method shown. Binding seen in cells or lysates may run through a third protein. Some results given as binding are weak or reduced against the parent protein; the word gives no strength.

Sequences of proteins named here, by UniProt entry; tags and fusion partners are left off.
UniProt Q07157: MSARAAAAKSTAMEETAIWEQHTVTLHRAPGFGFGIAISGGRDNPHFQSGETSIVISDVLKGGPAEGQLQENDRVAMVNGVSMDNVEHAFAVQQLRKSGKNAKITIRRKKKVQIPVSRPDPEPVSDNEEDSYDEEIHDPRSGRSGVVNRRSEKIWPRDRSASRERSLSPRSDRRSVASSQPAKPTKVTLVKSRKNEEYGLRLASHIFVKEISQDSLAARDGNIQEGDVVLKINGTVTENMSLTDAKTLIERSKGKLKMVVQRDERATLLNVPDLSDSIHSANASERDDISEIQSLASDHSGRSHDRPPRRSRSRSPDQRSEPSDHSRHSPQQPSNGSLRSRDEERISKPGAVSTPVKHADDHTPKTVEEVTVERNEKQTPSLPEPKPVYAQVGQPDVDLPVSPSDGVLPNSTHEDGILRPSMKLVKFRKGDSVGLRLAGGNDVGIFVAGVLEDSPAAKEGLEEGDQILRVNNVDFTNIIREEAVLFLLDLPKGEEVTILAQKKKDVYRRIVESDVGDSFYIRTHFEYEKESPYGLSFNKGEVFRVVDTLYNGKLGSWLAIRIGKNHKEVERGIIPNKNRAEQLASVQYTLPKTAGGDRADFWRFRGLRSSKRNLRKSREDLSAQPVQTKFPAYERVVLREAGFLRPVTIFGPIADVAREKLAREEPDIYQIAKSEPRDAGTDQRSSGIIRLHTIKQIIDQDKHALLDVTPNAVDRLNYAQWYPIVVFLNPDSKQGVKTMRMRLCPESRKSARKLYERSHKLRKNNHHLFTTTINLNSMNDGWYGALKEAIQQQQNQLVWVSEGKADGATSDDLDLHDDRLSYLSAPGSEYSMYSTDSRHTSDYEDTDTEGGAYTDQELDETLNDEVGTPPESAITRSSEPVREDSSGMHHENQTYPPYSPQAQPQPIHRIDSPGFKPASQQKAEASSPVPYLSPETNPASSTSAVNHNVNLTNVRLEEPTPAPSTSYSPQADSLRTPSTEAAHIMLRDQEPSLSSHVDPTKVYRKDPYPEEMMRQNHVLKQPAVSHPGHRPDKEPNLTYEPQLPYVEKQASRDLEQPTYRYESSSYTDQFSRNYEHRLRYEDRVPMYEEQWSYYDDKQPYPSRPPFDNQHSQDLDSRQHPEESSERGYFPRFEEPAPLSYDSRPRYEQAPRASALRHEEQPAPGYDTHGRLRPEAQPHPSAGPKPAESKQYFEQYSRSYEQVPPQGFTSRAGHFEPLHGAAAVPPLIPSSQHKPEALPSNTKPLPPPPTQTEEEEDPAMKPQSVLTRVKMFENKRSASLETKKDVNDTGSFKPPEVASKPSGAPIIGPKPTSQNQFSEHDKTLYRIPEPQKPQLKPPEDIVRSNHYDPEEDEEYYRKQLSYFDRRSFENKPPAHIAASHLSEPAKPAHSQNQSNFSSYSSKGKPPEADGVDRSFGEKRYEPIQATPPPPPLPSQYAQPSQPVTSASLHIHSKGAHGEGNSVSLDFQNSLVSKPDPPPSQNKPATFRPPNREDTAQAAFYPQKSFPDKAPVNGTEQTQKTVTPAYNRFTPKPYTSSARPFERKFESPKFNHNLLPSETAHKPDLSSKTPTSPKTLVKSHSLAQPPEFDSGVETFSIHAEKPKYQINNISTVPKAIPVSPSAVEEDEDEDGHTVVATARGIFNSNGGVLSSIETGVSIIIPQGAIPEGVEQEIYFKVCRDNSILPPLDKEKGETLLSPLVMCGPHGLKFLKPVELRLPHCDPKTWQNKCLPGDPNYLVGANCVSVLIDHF
UniProt P0DTC4: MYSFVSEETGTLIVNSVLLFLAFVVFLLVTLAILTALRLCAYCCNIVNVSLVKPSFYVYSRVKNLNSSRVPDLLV

Molecular target: GFP-tagged ZO-1 full-length protein (UniProt Q07157)
Assay: pull-down; only the target purified

Substance: SARS-CoV-2 Envelope (E) protein, wild type, produced by the recombinant virus rSARS-CoV2-E-WT (from UniProt P0DTC4 1-75)
- binding: binds
